Holding throughout (test): normalised response (% of control), CellTox Green; higher = less cell death (100 = DMSO, 0 = benzethonium chloride kill control)
What all share (settings): incubation time: 72 h

The test system of one test is HCC1143. As for the experimental part:
(§1)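 DSRT, 72 h incubation, CellTox Green / CellTiter-Glo readout. Signal is normalised to DMSO and benzethonium chloride controls. Value is the normalised response at the lowest tested concentration.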

In a further test the test system is MDA-MB-436. As for the experimental part: as §1
Another test has as its system BT-549. As for the experimental part: as §1
The test system of a further test is CAL-120. The method, then:
as §1

The test system of the next test is MDA-MB-468. The method, then:
as §1

A further test concerns DU-4475. As for the experimental part: as §1
In a further test the test system is HCC1599. The method, then: as §1
Another test deals with MDA-MB-231. As for the experimental part: as §1
Another test concerns CAL-51. The method, then:
as §1

The next test deals with BT-474. The method, then: as §1
The next test has as its system CAL-85-1. The method, then:
as §1

A further test concerns MCF-10A. As for the experimental part:
as §1

The next test has as its system MDA-MB-453. As for the experimental part: as §1
The test system of a further test is HDQ-P1. As for the experimental part: as §1
The next test deals with CAL-148. As for the experimental part: as §1
A further test relates to MFM-223. The method, then: as §1
The test system of the next test is Hs578T. The method, then: as §1
For a further test, the system named is HCC1937. The method, then:
as §1

From the supplement of paper PMC4862054 come the findings set out here.

Structures are written as SMILES. Most entries show no effect beyond the scatter of the controls.

Take `Cn1cc(C[C@@H](N)C(=O)O)c2ccccc21` [1-methyl-D-tryptophan] (0.5 nM): the normalised response was 102% in the test on HCC1143; 79.8% with MDA-MB-436; 86.7% with BT-549; 93.5% in the test on CAL-120; 64.7% with MDA-MB-468; 98.3% with DU-4475. Moreover, the normalised response with HCC1599 came to 94.5%; in the test on MDA-MB-231 it was 91.9%; in the test on CAL-51, 114%; in the test on BT-474 it was 94.9%; with CAL-85-1, 96.7%; in the test on MCF-10A, 101%. In addition, the normalised response in the test on MDA-MB-453 came out at 102%; in the test with HDQ-P1, 88.6%; with CAL-148 it was 102%; in the test on MFM-223, 80.2%.

As for `CC1=C2C[C@H]3[C@@H](CC=C4C[C@@H](O)CC[C@@]43C)[C@@H]2CC[C@]12O[C@@H]1C[C@H](C)CN[C@H]1[C@H]2C` [Cyclopamine] (1 nM), the normalised response with HCC1143 came to 117%; in the test with MDA-MB-436, 96.4%; with Hs578T it was 88.9%; in the test with BT-549, 93.5%; with CAL-120, 97.2%; in the test on MDA-MB-468 it was 56.4%. Besides, the normalised response with DU-4475 turned out to be 103%; with HCC1599 it was 100%; with CAL-51 it was 114%; with HCC1937 it was 109%; in the test with BT-474, 101%; in the test on CAL-85-1 it was 106%. Further, the normalised response with MDA-MB-453 stood at 101%; with HDQ-P1, 101%; in the test on CAL-148, 101%; with MFM-223, 76.9%.

Consider `COc1cc([C@@H]2c3cc4c(cc3[C@@H](O[C@@H]3O[C@@H]5CO[C@@H](C)O[C@H]5[C@H](O)[C@H]3O)[C@H]3COC(=O)[C@H]23)OCO4)cc(OC)c1O` [Etoposide] (1 nM), for which the normalised response in the test on HCC1143 is 120%; in the test with MDA-MB-436, 92.7%; with Hs578T, 98.7%; in the test with BT-549, 98.7%; in the test on CAL-120 it was 102%; in the test with DU-4475, 105%. Moreover, the normalised response in the test on HCC1599 was determined as 113%; in the test with MDA-MB-231, 112%; with CAL-51, 120%; in the test on HCC1937 it was 73.8%; in the test with BT-474 it was 101%; in the test with CAL-85-1 it was 96%. Besides, the normalised response in the test with MCF-10A is 108%; in the test with MDA-MB-453, 69.6%; in the test on HDQ-P1 it was 107%; in the test on CAL-148, 97.8%; with MFM-223, 84.7%.

In the case of `Oc1ccc2c(c1)CC[C@H](c1ccccc1)[C@@H]2c1ccc(OCCN2CCCC2)cc1` [Lasofoxifene] (0.1 nM), the normalised response in the test on HCC1143 was determined as 115%; in the test on MDA-MB-436, 54.5%; with Hs578T, 109%; in the test on BT-549, 68.8%; with CAL-120, 99.9%; in the test with DU-4475 it was 105%. The normalised response in the test on HCC1599 came to 94.6%; in the test with MDA-MB-231, 103%; with CAL-51, 129%; in the test with HCC1937, 109%; in the test on BT-474, 104%; in the test on CAL-85-1, 105%. Further, the normalised response in the test with MDA-MB-453 stood at 112%; in the test with HDQ-P1 it was 102%; in the test with CAL-148, 85.8%; in the test with MFM-223, 95.3%.

On to `Nc1nc(OCc2cc(Br)cs2)c2[nH]cnc2n1` [Lomeguatrib] (1 nM), for which the normalised response worked out at 86.8% with HCC1143; 86.9% with MDA-MB-436; 105% in the test with Hs578T; 102% in the test with BT-549; 103% in the test with CAL-120; 104% in the test with DU-4475. Moreover, the normalised response was determined as 107% in the test on HCC1599; 113% with MDA-MB-231; 117% in the test with CAL-51; 113% in the test on HCC1937; 99.4% in the test on BT-474; 101% with CAL-85-1. Further, the normalised response was determined as 104% in the test on MCF-10A; 106% in the test on MDA-MB-453; 101% in the test on HDQ-P1; 99.5% in the test on CAL-148; 103% with MFM-223.

As to `C=CCn1c(=O)c2cnc(Nc3ccc(N4CCN(C)CC4)cc3)nc2n1-c1cccc(C(C)(C)O)n1` [MK1775] (1 nM), the normalised response in the test with HCC1143 was 78%; in the test with MDA-MB-436, 67.3%; in the test on BT-549, 104%; in the test with CAL-120, 96.7%; with MDA-MB-468, 112%; in the test with DU-4475, 87.6%. Further, the normalised response with HCC1599 worked out at 89.2%; in the test with MDA-MB-231, 89.3%; in the test with CAL-51, 107%; in the test on BT-474 it was 74.3%; with CAL-85-1 it was 94.4%; in the test with MCF-10A, 72%. Moreover, the normalised response in the test with MDA-MB-453 came to 98.7%; in the test with HDQ-P1, 91.8%; in the test with CAL-148 it was 65.3%; with MFM-223 it was 96.2%.

For the compound `OC[C@H]1O[C@@H](n2cnc3c2N=CNC[C@H]3O)C[C@@H]1O` [Pentostatin] (1 nM), the normalised response with MDA-MB-436 amounted to 98%; with Hs578T, 103%; in the test with BT-549 it was 93.1%; with CAL-120 it was 101%; in the test with MDA-MB-468 it was 73.3%; in the test on DU-4475 it was 104%. The normalised response is 101% in the test with HCC1599; 63.3% in the test with MDA-MB-231; 118% in the test on CAL-51; 106% with HCC1937; 96.9% with BT-474; 99.9% with CAL-85-1. Further, the normalised response in the test with MCF-10A came to 108%; in the test on MDA-MB-453, 98.6%; in the test on HDQ-P1, 88.8%; in the test on CAL-148, 102%; in the test on MFM-223, 98.7%.

With `CCCCCCCCCCCCCCCCCCOP(=O)([O-])OC1CC[N+](C)(C)CC1` [Perifosine] (0.25 nM), the normalised response in the test with HCC1143 stood at 77.3%; with MDA-MB-436, 66.2%; in the test on BT-549 it was 102%; in the test with CAL-120, 99.6%; in the test with MDA-MB-468, 106%; with DU-4475 it was 108%. Moreover, the normalised response with HCC1599 is 95%; in the test with MDA-MB-231 it was 112%; in the test with CAL-51, 95.8%; in the test with HCC1937, 92.7%; with BT-474, 94.6%; with CAL-85-1 it was 98.5%. For the same compound, the normalised response in the test on MCF-10A turned out to be 109%; with MDA-MB-453, 94.3%; in the test with HDQ-P1, 105%; in the test on CAL-148, 99%; in the test on MFM-223, 102%.

For the compound `CN(C)CCOc1ccc(/C(=C(/CCCl)c2ccccc2)c2ccccc2)cc1` [Toremifene] (1 nM), the normalised response with HCC1143 was 117%; in the test with MDA-MB-436, 96.1%; in the test with Hs578T, 110%; in the test on BT-549 it was 96.6%; in the test on CAL-120, 103%; in the test on MDA-MB-468, 98.4%. Moreover, the normalised response in the test with DU-4475 was determined as 103%; in the test on HCC1599, 97.8%; in the test with MDA-MB-231, 106%; in the test with CAL-51, 109%; in the test with HCC1937 it was 85.1%; in the test on BT-474, 93.6%. The normalised response in the test on CAL-85-1 was 98.4%; with MDA-MB-453, 106%; in the test on HDQ-P1, 88.2%; in the test on CAL-148, 75.8%; in the test on MFM-223, 101%.
